From PubChem BioAssay AID330 (DTP/NCI, 2004)
The list is a part of this screen's results and no random one: it is rich in T/C values a quarter to a half above the control, in often repeated tests (any T/C) and in doses without a T/C. Other doses and runs of a compound stand elsewhere. T/C is the treated group as % of the vehicle group. Some doses have a count of surviving animals in place of a T/C: the source files T/C as zero there, which appears to mark a toxic dose or a test without result, not a measured value. Some doses without a T/C left all or most animals alive at the check, yet need not have been tolerated: survival well below the control is almost never listed, so the zero probably covers shortened survival too. Counts of survivors are from the toxicity check (mostly the fifth day) where no day follows; animals may have died later. Schedule codes are those of the source, read here as Q, the interval in days (D) or hours (H), X, the number of doses. Some molecules as drawn cover several salts, stereoisomers or complexes of the source; a dose is that of the sample tested. Brackets with × give the number of equal values in this list. For survival time, the PubChem record calls one and a half times the control and up active, and a quarter to a half above the control has no call in these data; cut-offs in other NCI protocols can differ. Some T/C values carry the count of animals alive at the toxicity check (mostly the fifth day); without a count, all were alive then. Some doses were run more than once; the values are given in rising order.

Tested on: P388 leukemia ip, CD2F1 mice, survival T/C
Assay: NCI In Vivo Anticancer Drug Screen. Data for tumor model P388 Leukemia (intraperitoneal) in CD2F1 (CDF1) mice
Conditions: T/C endpoint: median survival time, higher T/C = longer survival
[1] = dose: 200.0 mg/kg/injection, schedule: Q01DX009 (ip), vehicle: saline with Tween-80
[2] = dose: 120.0 mg/kg/injection, schedule: Q01DX005 (ip), vehicle: Klucel (hydroxypropylcellulose) (HPC)
[3] = dose: 100.0 mg/kg/injection, schedule: Q01DX005 (ip), vehicle: saline with Tween-80
[4] = dose: 240.0 mg/kg/injection, schedule: Q01DX005 (ip), vehicle: Klucel (hydroxypropylcellulose) (HPC)
[5] = dose: 50.0 mg/kg/injection, schedule: Q01DX009 (ip), vehicle: Klucel (hydroxypropylcellulose) (HPC)
[6] = dose: 100.0 mg/kg/injection, schedule: Q01DX009 (ip), vehicle: Klucel (hydroxypropylcellulose) (HPC)
[7] = dose: 200.0 mg/kg/injection, schedule: Q01DX009 (ip), vehicle: Klucel (hydroxypropylcellulose) (HPC)

Question: `COc1cc(NC(=O)N(CCCl)N=O)cc(OC)c1OC` was tested. Which T/C (dose: 0.59 mg/kg/injection, schedule: Q01DX009 (ip), vehicle: saline + alcohol) did it give?
Answer: 143 % of control

Question: What about the T/C (dose: 0.88 mg/kg/injection, schedule: Q01DX009 (ip), vehicle: saline + alcohol) of the same compound?
Answer: 148 % of control

Question: What about the T/C (dose: 2.2 mg/kg/injection, schedule: Q04DX003 (ip), vehicle: saline + alcohol) of the same compound?
Answer: 136 % of control

Question: And the T/C (dose: 3.3 mg/kg/injection, schedule: Q04DX003 (ip), vehicle: saline + alcohol)?
Answer: 136 % of control

Question: And the T/C (dose: 5.0 mg/kg/injection, schedule: Q04DX003 (ip), vehicle: saline + alcohol)?
Answer: 136 % of control

Question: What about the survivor count (dose: 100.0 mg/kg/injection, schedule: Q04DX003 (ip), vehicle: other) of the same compound?
Answer: 5 of 6

Question: What about the survivor count (dose: 200.0 mg/kg/injection, schedule: Q04DX003 (ip), vehicle: other) of the same compound?
Answer: 0 of 6

Question: What about the survivor count (dose: 400.0 mg/kg/injection, schedule: Q04DX003 (ip), vehicle: other) of the same compound?
Answer: 0 of 6

Question: With `Cc1ccc(Cl)c([N+](=O)[O-])c1N` as the compound, how does the survivor count (dose: 400.0 mg/kg/injection, schedule: Q04DX003 (ip), vehicle: saline with Tween-80) read?
Answer: 0 of 6

Question: With `Cc1c2c(cc3c4ccccc4n(C)c13)C(=O)NC2=O` as the compound, how does the survivor count (dose: 200.0 mg/kg/injection, schedule: Q01DX005 (ip), vehicle: saline with Tween-80) read?
Answer: 5 of 5

Question: Which survivor count [1] does the source give for `O=c1[nH]cnc2[nH]ncc12` here?
Answer: 5 of 6

Question: With `O=C(Nc1cccc2nsnc12)c1ccc(C(=O)Nc2cccc3nsnc23)cc1` as the compound, how does the survivor count (dose: 3.75 mg/kg/injection, schedule: Q01DX005 (ip), vehicle: Klucel (hydroxypropylcellulose) (HPC)) read?
Answer: 6 of 6

Question: What about the survivor count (dose: 7.5 mg/kg/injection, schedule: Q01DX005 (ip), vehicle: Klucel (hydroxypropylcellulose) (HPC)) of the same compound?
Answer: 6 of 6

Question: What about the survivor count (dose: 15.0 mg/kg/injection, schedule: Q01DX005 (ip), vehicle: Klucel (hydroxypropylcellulose) (HPC)) of the same compound?
Answer: 6 of 6

Question: And the survivor count (dose: 60.0 mg/kg/injection, schedule: Q01DX005 (ip), vehicle: Klucel (hydroxypropylcellulose) (HPC))?
Answer: 6 of 6

Question: What about the survivor count [2] of the same compound?
Answer: 6 of 6

Question: With `CC(C)C(NC(=O)[C@@H](C(C)C)N1C(=O)c2ccccc2C1=O)C(=O)O` (stereo partly drawn) as the compound, how does the survivor count [3] read?
Answer: 5 of 5

Question: `O=C1CSC(c2c(F)cccc2Cl)N1c1nncs1` (stereo not drawn) was tested. Which T/C [2] did it give?
Answer: 127 % of control

Question: What about the T/C [4] of the same compound?
Answer: 136 % of control

Question: And the survivor count [4]?
Answer: 4 of 6

Question: And the survivor count (dose: 480.0 mg/kg/injection, schedule: Q01DX005 (ip), vehicle: Klucel (hydroxypropylcellulose) (HPC))?
Answer: 4 of 6

Question: With `C[N+]1=C(/C=C/Nc2ccc(Cl)cc2)C(C)(C)c2ccccc21` as the compound, how does the survivor count [5] read?
Answer: 2 of 6

Question: And the survivor count [6]?
Answer: 0 of 6

Question: And the survivor count [7]?
Answer: 0 of 6

Question: What does the source list for `O=C(NNC(=O)c1cccc(C(=O)NNC(=O)c2ccc(Cl)c(Cl)c2)n1)c1ccc(Cl)c(Cl)c1`?
Answer: T/C [5]: 125 % of control; T/C [6]: 127 and 127 % of control [5 of 6 alive]; survivor count [7]: 3 of 6

Question: With `CNC(=O)O/N=C(\CN=[N+]=[N-])C(C)(C)C` as the compound, how does the survivor count (dose: 1.56 mg/kg/injection, schedule: Q01DX009 (ip), vehicle: saline with Tween-80) read?
Answer: 2 of 6

Question: What about the survivor count (dose: 3.13 mg/kg/injection, schedule: Q01DX009 (ip), vehicle: saline with Tween-80) of the same compound?
Answer: 0 of 6

Question: And the survivor count (dose: 6.25 mg/kg/injection, schedule: Q01DX009 (ip), vehicle: saline with Tween-80)?
Answer: 0 of 6

Question: Which survivor count (dose: 240.0 mg/kg/injection, schedule: Q01DX005 (ip), vehicle: Klucel + Tween-80) does the source give for `CC(=O)Nc1cc2cc(N=CN(C)C)ccc2oc1=O` here?
Answer: 1 of 6

Question: How did the survivor count [1] turn out when `CCCCN(CCCC)CCCOC(=O)c1ccc2oc3ccc(C(=O)OCCCN(CCCC)CCCC)cc3c2c1` was run?
Answer: 2 of 6

Question: Which results are given for `S=C(NNc1nnc(-c2ccccc2)c(-c2ccccc2)n1)Nc1ccc(Br)cc1`?
Answer: survivor count (dose: 50.0 mg/kg/injection, schedule: Q01DX005 (ip), vehicle: saline with Tween-80): 6 of 6; survivor count [3]: 6 of 6

Question: Which survivor count (dose: 240.0 mg/kg/injection, schedule: Q01DX005 (ip), vehicle: saline with Tween-80) does the source give for `CN(C)C1CS(=O)(=O)OC2=C1COCC2` (stereo not drawn) here?
Answer: 2 of 6

Question: How did the survivor count (dose: 120.0 mg/kg/injection, schedule: Q01DX005 (ip), vehicle: saline) turn out when `Cc1ccc(C)c(C(=O)CCN(C)C)c1` was run?
Answer: 0 of 6

Question: And the survivor count (dose: 240.0 mg/kg/injection, schedule: Q01DX005 (ip), vehicle: saline)?
Answer: 0 of 6

Question: How did the T/C (dose: 6.25 mg/kg/injection, schedule: Q04DX003 (ip), vehicle: olive oil, sesame oil, peanut oil) turn out when `O=C(CCCSCCCl)Nc1c([N+](=O)[O-])cc([N+](=O)[O-])cc1S(=O)(=O)O` was run?
Answer: 127 % of control

Question: What about the T/C (dose: 12.5 mg/kg/injection, schedule: Q04DX003 (ip), vehicle: DMSO) of the same compound?
Answer: 132 % of control

Question: What about the T/C (dose: 12.5 mg/kg/injection, schedule: Q04DX003 (ip), vehicle: olive oil, sesame oil, peanut oil) of the same compound?
Answer: 141 % of control

Question: And the T/C (dose: 25.0 mg/kg/injection, schedule: Q04DX003 (ip), vehicle: DMSO)?
Answer: 136 % of control

Question: What about the T/C (dose: 25.0 mg/kg/injection, schedule: Q04DX003 (ip), vehicle: olive oil, sesame oil, peanut oil) of the same compound?
Answer: 126 % of control

Question: And the T/C (dose: 50.0 mg/kg/injection, schedule: Q04DX003 (ip), vehicle: DMSO)?
Answer: 142 % of control

Question: What about the T/C (dose: 50.0 mg/kg/injection, schedule: Q04DX003 (ip), vehicle: olive oil, sesame oil, peanut oil) of the same compound?
Answer: 138 % of control

Question: And the T/C (dose: 75.0 mg/kg/injection, schedule: Q04DX003 (ip), vehicle: DMSO)?
Answer: 131 % of control

Question: And the survivor count (dose: 200.0 mg/kg/injection, schedule: Q04DX003 (ip), vehicle: olive oil, sesame oil, peanut oil)?
Answer: 0 of 6

Question: What does the source list for `CC(=NC(C)(C)C)N1CCCC1`?
Answer: survivor count (dose: 50.0 mg/kg/injection, schedule: Q01DX005 (ip), vehicle: saline): 5 of 5; survivor count (dose: 100.0 mg/kg/injection, schedule: Q01DX005 (ip), vehicle: saline): 0 of 5; survivor count (dose: 200.0 mg/kg/injection, schedule: Q01DX005 (ip), vehicle: saline): 0 of 5 (2×)

Question: `N#CC(Br)(Br)C#N` was tested. Which survivor count (dose: 12.5 mg/kg/injection, schedule: Q01DX009 (ip), vehicle: Klucel (hydroxypropylcellulose) (HPC)) did it give?
Answer: 3 of 6

Question: What about the survivor count (dose: 25.0 mg/kg/injection, schedule: Q01DX009 (ip), vehicle: Klucel (hydroxypropylcellulose) (HPC)) of the same compound?
Answer: 0 of 6

Question: And the survivor count [5]?
Answer: 0 of 6

Question: What about the survivor count [6] of the same compound?
Answer: 0 of 6

Question: And the survivor count [7]?
Answer: 0 of 6

Question: What about the survivor count (dose: 400.0 mg/kg/injection, schedule: Q01DX009 (ip), vehicle: Klucel (hydroxypropylcellulose) (HPC)) of the same compound?
Answer: 0 of 6

Question: How did the survivor count [1] turn out when `C=CC1CN2CCC1CC2C(O)c1ccnc2ccc(OC)cc12` (stereo not drawn) (tested in a mixture with another compound) was run?
Answer: 2 of 6

Question: What does the source list for `CC1([CH2][Hg][I])OCCOC1[CH2][Hg][I]` (stereo not drawn)?
Answer: survivor count (dose: 50.0 mg/kg/injection, schedule: Q01DX009 (ip), vehicle: saline): 1 of 6; survivor count (dose: 100.0 mg/kg/injection, schedule: Q01DX009 (ip), vehicle: saline): 1 of 6
